Laboratory results reported in paper PMC12809119.
Results are given in words; binding and its absence hold for the method and conditions named. In cells and extracts the contact can be indirect. Some results given as binding are weak or reduced against the parent protein; the word gives no strength.

Chains of the proteins cited; added tags and fusions are not shown. Lines headed by an entry give the natural chain unless they say otherwise; changes in a name come on top.
UniProt O60678: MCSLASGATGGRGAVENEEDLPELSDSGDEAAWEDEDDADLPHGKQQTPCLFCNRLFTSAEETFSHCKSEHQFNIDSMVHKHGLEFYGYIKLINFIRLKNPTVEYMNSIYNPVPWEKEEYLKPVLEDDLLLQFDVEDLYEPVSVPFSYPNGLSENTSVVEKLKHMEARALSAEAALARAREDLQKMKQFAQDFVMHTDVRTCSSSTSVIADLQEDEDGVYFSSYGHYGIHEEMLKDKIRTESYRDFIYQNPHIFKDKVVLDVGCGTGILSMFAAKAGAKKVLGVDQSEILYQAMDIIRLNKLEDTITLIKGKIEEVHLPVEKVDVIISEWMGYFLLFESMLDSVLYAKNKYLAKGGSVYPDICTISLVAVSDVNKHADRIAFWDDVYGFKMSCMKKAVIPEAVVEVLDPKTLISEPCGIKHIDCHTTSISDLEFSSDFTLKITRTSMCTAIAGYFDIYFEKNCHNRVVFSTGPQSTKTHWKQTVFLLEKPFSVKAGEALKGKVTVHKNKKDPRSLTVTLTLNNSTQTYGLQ
UniProt P05549: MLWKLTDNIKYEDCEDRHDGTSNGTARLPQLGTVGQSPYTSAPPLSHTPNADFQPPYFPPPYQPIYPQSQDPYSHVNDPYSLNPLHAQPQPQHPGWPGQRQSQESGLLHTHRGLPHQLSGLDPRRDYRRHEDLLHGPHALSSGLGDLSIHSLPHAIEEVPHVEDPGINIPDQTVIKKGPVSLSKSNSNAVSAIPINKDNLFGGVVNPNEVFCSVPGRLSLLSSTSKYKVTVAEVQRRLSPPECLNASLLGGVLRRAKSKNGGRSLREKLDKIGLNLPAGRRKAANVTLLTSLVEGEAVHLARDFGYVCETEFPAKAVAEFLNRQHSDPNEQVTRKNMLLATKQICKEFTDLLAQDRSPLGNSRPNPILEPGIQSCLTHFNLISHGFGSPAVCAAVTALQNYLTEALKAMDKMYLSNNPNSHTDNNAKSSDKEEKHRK
UniProt P14902: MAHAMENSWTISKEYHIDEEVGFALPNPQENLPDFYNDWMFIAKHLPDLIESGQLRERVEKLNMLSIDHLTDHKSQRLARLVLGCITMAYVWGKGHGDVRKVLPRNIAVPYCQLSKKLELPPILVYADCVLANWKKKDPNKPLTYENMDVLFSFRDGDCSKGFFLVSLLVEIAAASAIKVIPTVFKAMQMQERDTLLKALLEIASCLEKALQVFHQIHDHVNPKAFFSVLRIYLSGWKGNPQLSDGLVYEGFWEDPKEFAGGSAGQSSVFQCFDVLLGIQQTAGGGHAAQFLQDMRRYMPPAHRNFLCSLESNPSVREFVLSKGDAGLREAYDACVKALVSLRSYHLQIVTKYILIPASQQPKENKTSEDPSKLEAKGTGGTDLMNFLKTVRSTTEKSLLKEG

What was measured:
[1] = biological target: protein arginine methyltransferase-3 (PRMT3) (human) (UniProt O60678); experiment: co-IP; co-IP kit (absin abs955); lysate precleared with protein A and protein G, IP primary antibody or IgG overnight at 4°C, protein A/G overnight at 4°C, Western blot
[2] = biological target: transcription factor TFAP2A (human) (UniProt P05549); experiment: cross-linking; 2 mmol/L disuccinimidyl suberate on PBS-cleaned cells, room temperature 30 minutes, stopped with Tris-HCl, cells lysed, Western blot; cells with PRMT3 overexpressed, knocked down or inhibited by SGC707

Substance	binding [1]	binding [2]
TFAP2A R363K mutant (from UniProt P05549 1-437)	no binding	–
indoleamine 2,3-dioxygenase 1 (IDO1) (from UniProt P14902 1-403) (enzyme)	no binding	–
transcription factor TFAP2A (from UniProt P05549 1-437)	binds	binds
